PubChem BioAssay AID1259425 | University of Nebraska Medical Center, 2018

Screen: 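Find knockdowns that reproduce the gene expression pattern seen when KSR1 is lost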 (primary screen)
System: HCT116 human colon cancer cells
Knock-down reagent: siRNA pool against human genes, 50 nM siRNA
Measured: 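mRNA of six signature genes measured together by branched-DNA assay after 50 nM siRNA pool, blank removed, divided by geometric mean of two housekeeping genes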
Scale: BNIP3L mRNA: higher = more BNIP3L transcript after knockdown
This is one part, drawn at random, of about 14,000 reagents. Further read-outs or replicates are left out here. No sequences are given here. Not stated in the record: the time to read-out.

PLCXD1 — BNIP3L mRNA, set 1: 0.125
SCYL1 (SCY1 like pseudokinase 1) — BNIP3L mRNA, set 1: 0.0687
OTUD4 (OTU deubiquitinase 4) — BNIP3L mRNA, set 1: 0.0482
MFSD6 (major facilitator superfamily domain containing 6) — BNIP3L mRNA, set 1: 0.124
RAB6B (RAB6B, member RAS oncogene family) — BNIP3L mRNA, set 1: 0.102
CDC37 (cell division cycle 37, HSP90 cochaperone) — BNIP3L mRNA, set 1: 0.097
ADRB1 (adrenoceptor beta 1) — BNIP3L mRNA, set 1: 0.176
NEK3 (NIMA related kinase 3) — BNIP3L mRNA, set 1: 0.0589
GAN (gigaxonin) — BNIP3L mRNA, set 1: 0.141
SLC6A16 — BNIP3L mRNA, set 1: 0.105
TSPAN7 (tetraspanin 7) — BNIP3L mRNA, set 1: 0.113
TYROBP (transmembrane immune signaling adaptor TYROBP) — BNIP3L mRNA, set 1: 0.101
TPT1P8 (TPT1 pseudogene 8) — BNIP3L mRNA, set 1: 0.0673
TXNL4A (thioredoxin like 4A) — BNIP3L mRNA, set 1: 0.052
SH3BGRL3 (SH3 domain binding glutamate rich protein like 3) — BNIP3L mRNA, set 1: 0.42
METTL5 (methyltransferase 5, N6-adenosine) — BNIP3L mRNA, set 1: 0.166
MAGEC3 (MAGE family member C3) — BNIP3L mRNA, set 1: 0.0478
C11orf24 (chromosome 11 open reading frame 24) — BNIP3L mRNA, set 1: 0.0825
AP1G1 (adaptor related protein complex 1 subunit gamma 1) — BNIP3L mRNA, set 1: 0.0575

2 of these entries, set out differently:
{"target gene":"SLC6A16","BNIP3L mRNA, set 1":0.105}
{"target gene":"TSPAN7 (tetraspanin 7)","BNIP3L mRNA, set 1":0.113}
